Some of these results come from one statement about several compounds together. At least one structure is not confirmed: it was looked up by name or label, or the drawing left a doubt.
Test system: RPE cells
Experiment: Viability of RPE cells treated with retinal
Assay type: cell-based

Compound	improvement of viability of RPE cells treated with retinal compared to untreated cells
N=C(N)NCCCC(CN1CCCCC1)NC(=O)[C@H](N)Cc1ccc(F)cc1 (stereo partly drawn) [(2R)-2-amino-3-(4-fluorophenyl)-N-[4-guanidino-1-(1-piperidylmethyl)butyl]propanamide]	at least 15%
NCC(=O)c1ccccc1 [2-amino-1-phenyl-ethanone]	at least 15%
CNc1cccc(N)c1 [N1-methylbenzene-1,3-diamine]	at least 15%
COC(=O)N[C@@H]1CS[C@H](CCCCC(=O)O)[C@@H]1N [5-[(R2R,3R,4S)-3-amino-4-(methoxycarbonylamino)tetrahydrothiophen-2-yl]pentanoic acid]	at least 15%
Nc1ccc(Oc2ccc3c(c2)C(=O)N(c2cccc4ccccc24)C3=O)cc1 [5-(4-aminophenoxy)-2-(1-naphthyl)isoindoline-1,3-dione]	at least 15%
C[C@@H](O)CNC(=O)[C@@H](CCCCNC(=O)C1CCC(CN)CC1)NC(=O)c1cccs1 (stereo partly drawn) [N-[(1R)-5-[[4-(aminomethyl)cyclohexanecarbonyl]amino]-1-[[(2R)-2-hydroxypropyl]carbamoyl]pentyl]thiophene-2-carboxamide]	at least 15%
CN1CCN(c2ccc([N+](=O)[O-])c(N)c2)CC1 [5-(4-methylpiperazin-1-yl)-2-nitro-aniline]	at least 15%
N[C@@H](CSC(c1ccccc1)c1ccccc1)C(=O)O [(2R)-2-amino-3-benzhydrylsulfanyl-propanoic acid]	at least 15%
NCCNC(=O)/C=C\c1cccc2ccccc12 [(Z)—N-(2-aminoethyl)-3-(1-naphthyl)prop-2-enamide]	at least 15%
C/C(=N/NC(=O)c1ccccc1N)c1ccc(Cl)cc1 [2-amino-N—[(Z)-1-(4-chlorophenyl)ethylideneamino]benzamide]	at least 15%
Cn1c(=O)c(-c2cc(Br)ccc2N)nc2cc3ccccc3cc21 [2-(2-amino-5-bromo-phenyl)-4-methyl-benzo[g]quinoxalin-3-one]	at least 15%
NC(=O)C(N)Cc1c[nH]cn1 (stereo not shown) [2-amino-3-(1H-imidazol-4-yl)propanamide]	at least 15%
Nc1c(Br)cc([N+](=O)[O-])cc1S(=O)(=O)C(F)F [2-bromo-6-(difluoromethylsulfonyl)-4-nitro-aniline]	at least 15%
C=C(C)[C@@H]1CC[C@](C)(O)[C@@H](N)C1 [(1S,2S,4R)-2-amino-4-isopropenyl-1-methyl-cyclohexanol]	at least 15%
CN1CCN(CCCCN2C(=O)CN(/N=C/c3ccc(-c4ccc(N)cc4)o3)C2=O)CC1 [1-[(E)-[5-(4-aminophenyl)-2-furyl]methyleneamino]-3-[4-(4-methylpiperazin-1-yl)butyl]imidazolidine-2,4-dione]	at least 15%
Nc1ccccc1SC(CC(=O)c1ccccc1)c1ccc(Cl)c(Cl)c1 (stereo not shown) [3-(2-aminophenyl)sulfanyl-3-(3,4-dichlorophenyl)-1-phenyl-propan-1-one]	at least 15%
CC(C)(C)c1cc(N)c(O)c(C(C)(C)C)c1 [2-amino-4,6-ditert-butyl-phenol]	at least 15%

Compound	improvement of viability of RPE cells treated with retinal compared to untreated cells
Nc1ccc2nn(-c3ccccc3)nc2c1N [2-phenylbenzotriazole-4,5-diamine]	at least 15%
Nc1cccc(C(=O)Nc2cc(O)n(-c3c(Cl)cc(Cl)cc3Cl)n2)c1 [3-amino-N-[5-hydroxy-1-(2,4,6-trichlorophenyl)pyrazol-3-yl]benzamide]	at least 15%
NC(CC1CC1)C(=O)O (stereo not shown) [2-amino-3-cyclopropyl-propanoic acid]	at least 15%
Nc1ccc(C(=O)Nc2ccc(C(=O)O)cc2)c(C(=O)O)c1 [5-amino-2-[(4-carboxyphenyl)carbamoyl]benzoic acid]	at least 15%
COc1ccc(N)cc1NC(=O)c1ccc(Cl)cc1Cl [N-(5-amino-2-methoxy-phenyl)-2,4-dichloro-benzamide]	at least 15%
COC(=O)c1cc(OC)c(OC)cc1N [methyl 2-amino-4,5-dimethoxy-benzoate]	at least 15%
CN(C)c1ccc(Nc2nc3ccc(N)cc3s2)cc1 [N2-(4-dimethylaminophenyl)-1,3-benzothiazole-2,6-diamine]	at least 15%
CCC(CC)c1ccc(Oc2ccc(C(F)(F)F)cc2N)cc1 [2-[4-(1-ethylpropyl)phenoxy]-5-(trifluoromethyl)aniline]	at least 15%
Nc1ccc(O)c(S(=O)(=O)N2CCOCC2)c1 [4-amino-2-morpholinosulfonyl-phenol]	at least 15%
Nc1ccccc1CNC(=O)C(NC(=O)c1cc(-c2ccccc2)nc2ccccc12)c1ccccc1 (stereo not shown) [N-[2-[(2-aminophenyl)methylamino]-2-oxo-1-phenyl-ethyl]-2-phenyl-quinoline-4-carboxamide]	at least 15%
NCC1(c2ccccc2)CCCC1 [(1-phenylcyclopentyl)methanamine]	at least 15%
NCc1nc2ccccc2[nH]1 [1H-benzimidazol-2-ylmethanamine]	at least 15%
CC(C)(C)c1cc(C(C)(C)C)c(N)c(C(C)(C)C)c1 [2,4,6-tritert-butylaniline]	at least 15%
CC(N)C(=O)NCC(=O)N1CC(=O)NCC1=O (stereo not shown) [2-amino-N-[2-(2,5-dioxopiperazin-1-yl)-2-oxo-ethyl]propanamide]	at least 15%
C[C@]12CC[C@H](O)C[C@H]1CC[C@@H]1[C@@H]2CC[C@]2(C)C(C(=O)O)CC[C@]12N (stereo partly drawn) [(3S,5R,8R,9S,10S,13R,14S)-14-amino-3-hydroxy-10,13-dimethyl-1,2,3,4,5,6,7,8,9,11,12,15,16,17-tetradecahydrocyclopenta[a]phenanthrene-17-carboxylic acid]	at least 15%
NCCNC(=O)CN(CCO)CCO [N-(2-aminoethyl)-2-[bis(2-hydroxyethyl)amino]acetamide]	at least 15%
NC1CCN(Cc2ccccc2)CC1 [1-benzylpiperidin-4-amine]	at least 15%

Reference: patent US10208049B2, “Compounds and methods of treating ocular disorders” (Case Western Reserve University, priority 2009, dated 2019)
